Test results from the supplement of paper PMC10849652.
Some of the results follow.

Sequences of proteins named here, by UniProt entry; tags and fusion partners are left off. A change or cut given only in a name is not applied to a line headed by its entry.
UniProt Q9Y5W7: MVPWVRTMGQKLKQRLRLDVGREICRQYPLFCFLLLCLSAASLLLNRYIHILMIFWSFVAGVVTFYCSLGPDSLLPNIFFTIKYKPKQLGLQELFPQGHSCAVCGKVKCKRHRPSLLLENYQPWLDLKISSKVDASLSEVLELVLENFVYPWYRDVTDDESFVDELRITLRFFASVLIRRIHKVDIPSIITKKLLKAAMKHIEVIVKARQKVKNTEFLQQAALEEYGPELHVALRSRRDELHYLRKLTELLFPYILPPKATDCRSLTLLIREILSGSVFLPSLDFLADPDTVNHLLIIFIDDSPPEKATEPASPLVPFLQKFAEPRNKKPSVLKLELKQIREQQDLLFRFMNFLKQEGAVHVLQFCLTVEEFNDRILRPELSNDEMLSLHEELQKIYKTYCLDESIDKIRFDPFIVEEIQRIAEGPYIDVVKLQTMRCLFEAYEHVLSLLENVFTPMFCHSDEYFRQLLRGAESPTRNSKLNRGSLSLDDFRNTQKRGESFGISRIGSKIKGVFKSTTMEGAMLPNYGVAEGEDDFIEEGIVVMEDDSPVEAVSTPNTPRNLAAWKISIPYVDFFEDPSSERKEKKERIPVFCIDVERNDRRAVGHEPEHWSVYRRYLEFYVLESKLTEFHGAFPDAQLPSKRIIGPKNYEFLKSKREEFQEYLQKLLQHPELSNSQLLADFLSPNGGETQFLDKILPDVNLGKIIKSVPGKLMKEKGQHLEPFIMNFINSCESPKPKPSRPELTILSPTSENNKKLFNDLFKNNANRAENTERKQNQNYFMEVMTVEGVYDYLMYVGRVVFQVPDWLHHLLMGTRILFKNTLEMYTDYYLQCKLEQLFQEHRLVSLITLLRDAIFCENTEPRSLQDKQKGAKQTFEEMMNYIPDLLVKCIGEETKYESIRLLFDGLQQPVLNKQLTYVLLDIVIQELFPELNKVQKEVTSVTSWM
UniProt Q8IY18: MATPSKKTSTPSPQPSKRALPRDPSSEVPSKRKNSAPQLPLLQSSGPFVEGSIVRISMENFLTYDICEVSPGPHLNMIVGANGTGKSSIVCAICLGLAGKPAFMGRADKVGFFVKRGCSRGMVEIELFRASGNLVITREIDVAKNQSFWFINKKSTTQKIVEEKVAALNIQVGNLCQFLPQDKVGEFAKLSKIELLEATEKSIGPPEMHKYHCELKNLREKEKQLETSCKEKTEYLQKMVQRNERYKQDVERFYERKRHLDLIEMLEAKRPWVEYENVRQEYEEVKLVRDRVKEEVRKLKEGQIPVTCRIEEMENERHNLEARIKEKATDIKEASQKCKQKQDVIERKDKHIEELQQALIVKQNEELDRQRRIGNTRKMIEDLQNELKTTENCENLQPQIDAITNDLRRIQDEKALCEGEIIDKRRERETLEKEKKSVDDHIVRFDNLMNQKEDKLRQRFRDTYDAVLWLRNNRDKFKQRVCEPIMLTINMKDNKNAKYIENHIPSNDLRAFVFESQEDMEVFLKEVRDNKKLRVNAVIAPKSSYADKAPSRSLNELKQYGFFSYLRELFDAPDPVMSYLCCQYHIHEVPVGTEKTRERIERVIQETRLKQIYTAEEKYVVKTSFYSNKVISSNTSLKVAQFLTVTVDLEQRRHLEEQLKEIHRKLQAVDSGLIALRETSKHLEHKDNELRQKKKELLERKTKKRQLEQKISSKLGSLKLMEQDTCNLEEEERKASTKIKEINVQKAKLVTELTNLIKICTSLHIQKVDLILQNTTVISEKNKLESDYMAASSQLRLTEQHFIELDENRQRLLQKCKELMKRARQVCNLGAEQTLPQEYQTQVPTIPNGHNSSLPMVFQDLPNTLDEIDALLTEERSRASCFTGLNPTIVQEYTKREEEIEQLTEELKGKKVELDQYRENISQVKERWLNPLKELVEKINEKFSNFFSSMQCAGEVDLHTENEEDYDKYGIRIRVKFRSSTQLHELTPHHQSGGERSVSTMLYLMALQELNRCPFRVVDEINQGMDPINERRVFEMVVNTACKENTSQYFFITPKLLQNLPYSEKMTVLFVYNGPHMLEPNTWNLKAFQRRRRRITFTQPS
UniProt P00441, whole entry, looked up: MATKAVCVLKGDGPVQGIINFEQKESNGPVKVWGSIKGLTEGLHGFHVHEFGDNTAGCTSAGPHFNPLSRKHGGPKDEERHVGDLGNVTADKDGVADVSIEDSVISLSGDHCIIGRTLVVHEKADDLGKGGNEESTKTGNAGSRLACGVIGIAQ
UniProt O75643, whole entry, looked up: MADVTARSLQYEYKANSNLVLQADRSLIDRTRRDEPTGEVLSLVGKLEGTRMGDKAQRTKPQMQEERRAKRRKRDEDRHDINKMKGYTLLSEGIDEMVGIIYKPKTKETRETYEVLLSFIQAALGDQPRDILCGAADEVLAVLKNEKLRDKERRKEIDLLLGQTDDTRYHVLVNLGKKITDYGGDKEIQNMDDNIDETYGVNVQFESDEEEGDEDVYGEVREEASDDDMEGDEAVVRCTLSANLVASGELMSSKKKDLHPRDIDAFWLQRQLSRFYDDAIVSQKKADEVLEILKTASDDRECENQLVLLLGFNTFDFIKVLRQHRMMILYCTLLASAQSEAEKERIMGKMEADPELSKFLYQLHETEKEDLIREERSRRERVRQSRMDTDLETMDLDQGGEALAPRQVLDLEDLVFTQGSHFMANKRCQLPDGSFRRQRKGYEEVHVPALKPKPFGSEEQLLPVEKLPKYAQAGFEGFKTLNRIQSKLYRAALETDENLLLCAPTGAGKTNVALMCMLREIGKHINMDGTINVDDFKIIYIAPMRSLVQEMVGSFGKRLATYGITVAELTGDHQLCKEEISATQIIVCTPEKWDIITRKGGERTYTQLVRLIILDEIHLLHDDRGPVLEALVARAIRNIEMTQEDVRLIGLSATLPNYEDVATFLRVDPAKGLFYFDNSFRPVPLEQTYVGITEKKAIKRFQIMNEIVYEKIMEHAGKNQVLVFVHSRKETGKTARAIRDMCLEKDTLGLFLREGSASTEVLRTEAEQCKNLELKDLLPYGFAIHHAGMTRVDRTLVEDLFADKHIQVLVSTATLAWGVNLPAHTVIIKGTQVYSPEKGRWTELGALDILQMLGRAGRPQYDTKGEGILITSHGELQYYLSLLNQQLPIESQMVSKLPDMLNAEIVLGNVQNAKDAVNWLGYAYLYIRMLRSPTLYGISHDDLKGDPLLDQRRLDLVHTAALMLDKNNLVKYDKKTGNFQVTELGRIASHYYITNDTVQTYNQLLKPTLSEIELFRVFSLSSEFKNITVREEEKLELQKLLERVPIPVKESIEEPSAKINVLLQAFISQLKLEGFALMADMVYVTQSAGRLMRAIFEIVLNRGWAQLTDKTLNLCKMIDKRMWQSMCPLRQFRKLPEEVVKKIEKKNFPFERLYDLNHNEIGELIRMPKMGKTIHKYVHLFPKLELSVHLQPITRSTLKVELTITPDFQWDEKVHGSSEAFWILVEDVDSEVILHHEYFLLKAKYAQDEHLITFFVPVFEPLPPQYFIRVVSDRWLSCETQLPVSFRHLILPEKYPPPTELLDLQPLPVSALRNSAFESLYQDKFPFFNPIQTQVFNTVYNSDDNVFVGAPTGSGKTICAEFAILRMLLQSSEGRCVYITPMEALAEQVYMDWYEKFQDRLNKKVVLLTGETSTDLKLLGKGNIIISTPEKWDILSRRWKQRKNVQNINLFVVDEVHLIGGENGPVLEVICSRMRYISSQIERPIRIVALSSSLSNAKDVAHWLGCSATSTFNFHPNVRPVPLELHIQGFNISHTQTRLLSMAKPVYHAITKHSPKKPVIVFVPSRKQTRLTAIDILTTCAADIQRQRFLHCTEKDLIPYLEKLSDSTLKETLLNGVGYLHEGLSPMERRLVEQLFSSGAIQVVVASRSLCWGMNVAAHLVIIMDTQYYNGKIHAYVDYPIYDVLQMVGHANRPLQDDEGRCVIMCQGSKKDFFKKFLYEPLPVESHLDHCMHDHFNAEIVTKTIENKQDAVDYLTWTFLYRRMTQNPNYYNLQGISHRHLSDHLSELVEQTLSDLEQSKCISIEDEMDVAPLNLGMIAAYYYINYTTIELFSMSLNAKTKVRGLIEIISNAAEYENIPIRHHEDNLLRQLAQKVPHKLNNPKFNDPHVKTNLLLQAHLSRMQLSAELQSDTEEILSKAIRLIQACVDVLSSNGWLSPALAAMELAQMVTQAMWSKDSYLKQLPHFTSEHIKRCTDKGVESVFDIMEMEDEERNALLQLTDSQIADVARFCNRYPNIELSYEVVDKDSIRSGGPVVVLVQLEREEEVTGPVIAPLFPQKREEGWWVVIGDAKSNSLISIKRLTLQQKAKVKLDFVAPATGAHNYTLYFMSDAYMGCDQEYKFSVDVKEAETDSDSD
UniProt O60749: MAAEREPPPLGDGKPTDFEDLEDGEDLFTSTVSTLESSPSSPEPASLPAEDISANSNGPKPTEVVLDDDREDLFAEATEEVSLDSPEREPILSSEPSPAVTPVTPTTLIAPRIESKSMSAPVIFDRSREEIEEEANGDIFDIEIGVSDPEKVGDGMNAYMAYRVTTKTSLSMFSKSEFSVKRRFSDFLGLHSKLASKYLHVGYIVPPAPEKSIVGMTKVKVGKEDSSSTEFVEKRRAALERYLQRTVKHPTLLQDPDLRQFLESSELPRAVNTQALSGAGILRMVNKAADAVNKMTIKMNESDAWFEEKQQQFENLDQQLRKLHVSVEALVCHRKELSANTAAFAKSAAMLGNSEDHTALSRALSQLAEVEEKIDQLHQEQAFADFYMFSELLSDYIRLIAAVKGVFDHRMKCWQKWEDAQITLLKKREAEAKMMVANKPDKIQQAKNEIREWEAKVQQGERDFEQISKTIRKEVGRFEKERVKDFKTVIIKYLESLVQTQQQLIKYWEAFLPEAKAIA
UniProt Q9UQE7: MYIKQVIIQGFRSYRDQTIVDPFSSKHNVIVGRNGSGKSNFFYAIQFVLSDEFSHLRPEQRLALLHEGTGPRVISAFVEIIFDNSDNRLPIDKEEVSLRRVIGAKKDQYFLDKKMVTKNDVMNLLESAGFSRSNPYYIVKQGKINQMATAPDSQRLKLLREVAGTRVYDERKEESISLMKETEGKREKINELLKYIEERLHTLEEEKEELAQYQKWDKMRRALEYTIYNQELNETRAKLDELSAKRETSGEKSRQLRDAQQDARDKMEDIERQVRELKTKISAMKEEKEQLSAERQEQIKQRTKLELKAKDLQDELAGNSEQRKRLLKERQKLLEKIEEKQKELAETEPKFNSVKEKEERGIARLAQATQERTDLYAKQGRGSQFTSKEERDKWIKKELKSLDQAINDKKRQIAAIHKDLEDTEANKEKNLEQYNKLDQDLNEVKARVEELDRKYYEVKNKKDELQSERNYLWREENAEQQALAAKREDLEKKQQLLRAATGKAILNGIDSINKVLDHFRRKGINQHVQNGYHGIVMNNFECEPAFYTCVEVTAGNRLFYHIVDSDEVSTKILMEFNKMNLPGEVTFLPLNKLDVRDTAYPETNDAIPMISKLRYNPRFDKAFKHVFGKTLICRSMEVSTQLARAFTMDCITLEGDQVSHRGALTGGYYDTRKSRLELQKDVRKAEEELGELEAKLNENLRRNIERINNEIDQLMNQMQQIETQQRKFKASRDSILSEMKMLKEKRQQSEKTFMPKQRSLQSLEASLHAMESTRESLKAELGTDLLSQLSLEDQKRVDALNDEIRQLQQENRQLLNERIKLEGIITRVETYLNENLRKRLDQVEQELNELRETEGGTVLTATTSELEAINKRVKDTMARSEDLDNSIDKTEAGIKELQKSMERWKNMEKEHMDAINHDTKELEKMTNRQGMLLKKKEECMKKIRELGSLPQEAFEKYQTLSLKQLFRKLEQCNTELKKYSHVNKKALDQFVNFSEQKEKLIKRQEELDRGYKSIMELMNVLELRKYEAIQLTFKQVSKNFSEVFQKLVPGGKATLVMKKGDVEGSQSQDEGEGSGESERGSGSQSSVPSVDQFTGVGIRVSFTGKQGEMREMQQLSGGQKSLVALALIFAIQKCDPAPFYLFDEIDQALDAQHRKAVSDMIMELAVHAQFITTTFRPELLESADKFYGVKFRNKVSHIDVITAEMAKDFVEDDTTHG
UniProt O95149, whole entry, looked up: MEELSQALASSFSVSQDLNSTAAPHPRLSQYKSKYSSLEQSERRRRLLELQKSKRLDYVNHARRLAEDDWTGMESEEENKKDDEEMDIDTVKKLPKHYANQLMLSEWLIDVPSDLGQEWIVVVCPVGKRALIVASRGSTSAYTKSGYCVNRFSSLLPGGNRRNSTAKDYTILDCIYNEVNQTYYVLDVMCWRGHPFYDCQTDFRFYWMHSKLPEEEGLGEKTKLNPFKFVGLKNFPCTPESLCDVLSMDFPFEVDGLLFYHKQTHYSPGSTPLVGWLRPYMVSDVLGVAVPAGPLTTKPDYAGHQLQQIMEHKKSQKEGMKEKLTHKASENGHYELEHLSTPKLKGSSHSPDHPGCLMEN
UniProt Q9UMY4: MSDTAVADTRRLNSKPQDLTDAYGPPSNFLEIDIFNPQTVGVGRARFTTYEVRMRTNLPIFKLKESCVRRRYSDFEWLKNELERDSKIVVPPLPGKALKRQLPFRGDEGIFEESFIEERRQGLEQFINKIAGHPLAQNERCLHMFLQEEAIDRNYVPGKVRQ

Legend:
Assay in all cases: log2 fold change, soluble protein after heating vs DMSO (PISA); higher = thermal stabilisation; K562 lysate, 10 uM; active = over 0.2 and 3.5 SD of the protein, either way, in both replicates (recomputed)
erlotinib = compound: C#Cc1cccc(Nc2ncnc3cc(OCCOC)c(OCCOC)cc23)c1 [erlotinib]
Summary of the method: (§1)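 Log-two fold change in thermal stability relative to solvent controls is reported from duplicates. For each sample, crude K562 extract from dounce-homogenised pellets in PBS pH 7.4 with 1 mM MgCl2, at 1 mg/mL protein, was treated with 10 μM compound for 30 min. Aliquots heated for 3 min across 48°C-58°C were pooled, brought to 0.5% NP-40 at 4°C and cleared at 21,000xg for 90 min. The supernatant was quantified by TMTpro 16plex LC-MS/MS with channel sums equalised.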

[1] = compound: C/C(=N\NC(=O)C1=CC(=CC=C1)S(=O)(=O)N2CCOCC2)/C3=C(C=CC(=C3)Cl)O
Summary of the method: as §1

[2] = compound: C1=CC(=CC=C1C2=NC3=C(N2)C=C(C=C3)C(=O)N)OC4=CC=C(C=C4)Cl
Summary of the method: as §1

[3] = compound: C1=CC2=C(C=CC(=C2)/C=C\3/C(=O)NC(=NCC4=CC=CS4)S3)N=C1
Summary of the method: as §1

[4] = compound: C1=CC2=NC=CN=C2C=C1/C=C/3\C(=O)NC(=O)S3
Summary of the method: as §1

[5] = compound: C1=CC=C(C=C1)C2=NC(=C(N2)C3=CC=NC=C3)C4=CC(=C(C=C4)Cl)O
Summary of the method: as §1

[6] = compound: C1=CC=C2C(=C1)C3=NNC4=CC=CC(=C43)C2=O
Summary of the method: as §1

[7] = compound: C1CCN(C1)C(=O)NC2=CC=CC(=C2)NC3=NC=C(C(=N3)NCCC4=CN=CN4)Br
Summary of the method: as §1

[8] = compound: C1CN(CCC1(CC2=CC=C(C=C2)Cl)N)C3=NC=NC4=C3C=CN4
Summary of the method: as §1

IRAK-1-4 Inhibitor I = compound: C1COCCN1CCN2C3=CC=CC=C3N=C2NC(=O)C4=CC(=CC=C4)[N+](=O)[O-] [IRAK-1-4 Inhibitor I]
Summary of the method: as §1

ibrutinib = compound: C=CC(=O)N1CCC[C@@H](n2nc(-c3ccc(Oc4ccccc4)cc3)c3c(N)ncnc32)C1 [ibrutinib]
Summary of the method: as §1

[9] = compound: CC(=O)c1cnc2ccc(-c3cc(Cl)c(O)c(Cl)c3)nc2c1N[C@H]1CC[C@H](CN(C)C)CC1
Summary of the method: as §1

ralimetinib = compound: CC(C)(C)Cn1c(N)nc2ccc(-c3[nH]c(C(C)(C)C)nc3-c3ccc(F)cc3)nc21 [ralimetinib]
Summary of the method: as §1

[10] = compound: CC(C)(O)CC(=O)NCCn1ccc2ncnc(Nc3ccc(Oc4cccc(C(F)(F)F)c4)c(Cl)c3)c21
Summary of the method: as §1

[11] = compound: CC(C)C1=C2N=C(C=C(N2N=C1)NCC3=CC=CC=C3)NCCCCCCN
Summary of the method: as §1

[12] = compound: CC1=C(C(CC(=O)N1)C2=CC=C(C=C2)C(F)(F)F)C(=O)NC3=C(C=C4C(=C3)C=NN4)F
Summary of the method: as §1

[13] = compound: CC1=C(C2=C(C=C1)C(=O)C3=CC=CC=C3N2CCCN)C
Summary of the method: as §1

[14] = compound: CC1=C(C=C(C=C1)NC(=O)C2=CC(=CC=C2)C(C)(C)C#N)NC3=CC4=C(C=C3)N=CN(C4=O)C
Summary of the method: as §1

[15] = compound: CC1=C(C=C(C=C1)NC(=O)C2=CC(=CC=C2)N(C)C)NC(=O)C3=CC=C(C=C3)O
Summary of the method: as §1

[16] = compound: CC1=CC=C(C=C1)SC2=C3C=C(SC3=CN=C2)C(=O)N
Summary of the method: as §1

Measured: log2 fold change

SNX14 (UniProt Q9Y5W7)
inactive: erlotinib 0.121 | [1] -0.02 | [2] 0.108 | [3] 0.036 | [4] 0.007 | [5] 0.094 | [6] -0.032 | [7] -0.013 | [8] 0.124 | IRAK-1-4 Inhibitor I 0.159 | ibrutinib 0.041 | [9] -0.065 | ralimetinib -0.422 | [10] -0.419 | [11] 0.067 | [12] 0.098 | [13] -0.058 | [14] 0.375 | [15] 0.018 | [16] 0

SOCS2 (UniProt O14508)
inactive: erlotinib 0.018 | [1] 0.015 | [2] 0.008 | [3] 0 | [4] 0.005 | [5] -0.005 | [6] -0.001 | [7] -0.024 | [8] 0.023 | IRAK-1-4 Inhibitor I -0.005 | ibrutinib -0.051 | [9] -0.018 | ralimetinib -0.002 | [10] -0.042 | [11] -0.017 | [12] -0.059 | [13] 0.001 | [14] -0.012 | [15] 0.036 | [16] -0.049

SMC5 (UniProt Q8IY18)
inactive: erlotinib 0.032 | [1] 0.031 | [2] 0.056 | [3] 0.009 | [4] -0.018 | [5] 0.013 | [6] -0.04 | [7] -0.031 | [8] -0.016 | IRAK-1-4 Inhibitor I 0.043 | ibrutinib -0.012 | [9] -0.011 | ralimetinib 0.022 | [10] -0.005 | [11] 0 | [12] -0.008 | [13] -0.022 | [14] 0.013 | [15] 0.024 | [16] 0.019

SOD1 (UniProt P00441)
inactive: erlotinib 0.003 | [1] 0.111 | [2] -0.008 | [3] 0.01 | [4] -0.016 | [5] -0.054 | [6] 0.013 | [7] 0.053 | [8] 0.035 | IRAK-1-4 Inhibitor I 0.013 | ibrutinib 0.06 | [9] 0.004 | ralimetinib 0.049 | [10] 0.01 | [11] 0.025 | [12] -0.022 | [13] 0.152 | [14] -0.176 | [15] -0.039 | [16] 0.047

SNRNP200 (UniProt O75643)
inactive: erlotinib 0.003 | [1] 0.071 | [2] -0.009 | [3] 0.009 | [4] -0.007 | [5] -0.024 | [6] -0.022 | [7] -0.005 | [8] 0.009 | IRAK-1-4 Inhibitor I -0.023 | ibrutinib -0.002 | [9] -0.005 | ralimetinib 0.022 | [10] -0.015 | [11] 0.009 | [12] -0.01 | [13] 0.001 | [14] -0.018 | [15] 0.004 | [16] 0.013

SNX2 (UniProt O60749)
inactive: erlotinib 0.003 | [1] -0.059 | [2] 0.004 | [3] 0.009 | [4] -0.025 | [5] -0.042 | [6] -0.069 | [7] 0 | [8] -0.008 | IRAK-1-4 Inhibitor I -0.019 | ibrutinib 0.037 | [9] 0.001 | ralimetinib 0.007 | [10] 0.048 | [11] -0.008 | [12] -0.008 | [13] 0.02 | [14] -0.036 | [15] 0.006 | [16] -0.013

SNCG (UniProt O76070)
inactive: erlotinib -0.001 | [1] -0.011 | [2] 0.039 | [3] 0.002 | [4] -0.053 | [5] -0.006 | [6] 0.036 | [7] -0.016 | [8] 0.012 | IRAK-1-4 Inhibitor I 0 | ibrutinib -0.012 | [9] -0.015 | ralimetinib -0.002 | [10] 0.027 | [11] 0.02 | [12] -0.051 | [13] -0.027 | [14] 0.033 | [15] -0.024 | [16] -0.034

SNAP23 (UniProt O00161)
inactive: erlotinib -0.01 | [1] 0.037 | [2] -0.025 | [3] 0.047 | [4] 0.02 | [5] 0.039 | [6] 0.022 | [7] 0.018 | [8] 0.03 | IRAK-1-4 Inhibitor I 0.038 | ibrutinib 0.021 | [9] -0.003 | ralimetinib -0.01 | [10] 0.01 | [11] -0.04 | [12] -0.015 | [13] 0.045 | [14] 0.015 | [15] -0.013 | [16] 0.011

SPAG7 (UniProt O75391)
inactive: erlotinib -0.009 | [1] 0.043 | [2] 0.013 | [3] -0.019 | [4] 0.029 | [5] 0.023 | [6] -0.007 | [7] 0.028 | [8] 0.015 | IRAK-1-4 Inhibitor I 0.017 | ibrutinib -0.001 | [9] -0.028 | ralimetinib 0 | [10] -0.039 | [11] -0.015 | [12] -0.013 | [13] -0.011 | [14] 0.011 | [15] -0.006 | [16] -0.001

SNRPE (UniProt P62304)
inactive: erlotinib 0.014 | [1] -0.248 | [2] 0.045 | [3] -0.017 | [4] -0.017 | [5] 0.017 | [6] -0.002 | [7] -0.011 | [8] 0.067 | IRAK-1-4 Inhibitor I 0.008 | ibrutinib 0.002 | [9] -0.009 | ralimetinib -0.041 | [10] -0.072 | [11] -0.019 | [12] 0.003 | [13] -0.034 | [14] 0.041 | [15] -0.023 | [16] 0

SMC3 (UniProt Q9UQE7)
inactive: erlotinib -0.01 | [1] 0.018 | [2] -0.004 | [3] 0.018 | [4] -0.013 | [5] 0.002 | [6] 0.023 | [7] -0.007 | [8] -0.016 | IRAK-1-4 Inhibitor I -0.009 | ibrutinib 0.002 | [9] -0.001 | ralimetinib -0.023 | [10] 0.003 | [11] -0.002 | [12] -0.004 | [13] 0.01 | [14] -0.014 | [15] 0.011 | [16] 0.01

SNCA (UniProt P37840)
inactive: erlotinib -0.265 | [1] -0.037 | [2] 0.098 | [3] 0.025 | [4] -0.147 | [5] -0.02 | [6] 0.044 | [7] -0.056 | [8] -0.085 | IRAK-1-4 Inhibitor I 0.019 | ibrutinib 0.102 | [9] -0.148 | ralimetinib 0.028 | [10] 0.02 | [11] 0.013 | [12] 0.036 | [13] -0.068 | [14] -0.042 | [15] -0.059 | [16] 0.028

Random excerpt: two entries already listed.
SNAP23 (UniProt O00161)
inactive: erlotinib -0.01 | [1] 0.037 | [2] -0.025 | [3] 0.047 | [4] 0.02 | [5] 0.039 | [6] 0.022 | [7] 0.018 | [8] 0.03 | IRAK-1-4 Inhibitor I 0.038 | ibrutinib 0.021 | [9] -0.003 | ralimetinib -0.01 | [10] 0.01 | [11] -0.04 | [12] -0.015 | [13] 0.045 | [14] 0.015 | [15] -0.013 | [16] 0.011

SMC3 (UniProt Q9UQE7)
inactive: erlotinib -0.01 | [1] 0.018 | [2] -0.004 | [3] 0.018 | [4] -0.013 | [5] 0.002 | [6] 0.023 | [7] -0.007 | [8] -0.016 | IRAK-1-4 Inhibitor I -0.009 | ibrutinib 0.002 | [9] -0.001 | ralimetinib -0.023 | [10] 0.003 | [11] -0.002 | [12] -0.004 | [13] 0.01 | [14] -0.014 | [15] 0.011 | [16] 0.01

(list continues)

SNUPN (UniProt O95149)
inactive: erlotinib -0.048 | [1] -0.116 | [2] 0.3 | [3] 0.024 | [4] 0.035 | [5] 0.069 | [6] 0.009 | [7] 0.02 | [8] -0.039 | IRAK-1-4 Inhibitor I -0.001 | ibrutinib -0.072 | [9] 0.001 | ralimetinib -0.008 | [10] -0.068 | [11] -0.116 | [12] -0.065 | [14] 0.001 | [15] -0.036 | [16] 0.027

SNAP29 (UniProt O95721)
inactive: erlotinib -0.047 | [1] -0.058 | [2] 0.027 | [3] -0.04 | [4] -0.007 | [5] -0.022 | [6] 0.036 | [7] -0.029 | [8] -0.018 | IRAK-1-4 Inhibitor I 0.009 | ibrutinib 0.044 | [9] 0.013 | ralimetinib 0.003 | [10] -0.018 | [11] 0.029 | [12] -0.011 | [13] 0.003 | [14] 0.052 | [15] -0.019 | [16] -0.027

SNX12 isoform 1 (UniProt Q9UMY4)
inactive: erlotinib -0.006 | [1] 0.03 | [2] -0.013 | [3] -0.037 | [4] -0.006 | [5] 0.006 | [6] 0.012 | [7] -0.004 | [8] 0.022 | IRAK-1-4 Inhibitor I -0.003 | ibrutinib -0.031 | [9] -0.016 | ralimetinib -0.022 | [10] -0.038 | [11] -0.033 | [12] -0.066 | [13] -0.018 | [14] -0.02 | [15] -0.007 | [16] -0.014
